This is a selection; strong and weak results do not stand in their true shares. Single values of this set are uncertain.
compound: COC(=O)/C=C/c1ccccc1 [methyl cinnamate]; experiment: log2 ratio of iodoacetamide-alkyne labeling of the cysteine site, DMSO over compound (competition); higher = stronger covalent engagement of the cysteine by the compound, active = 1 or more; conditions: 500 µM; treatment time 1 h; system: HEK293T cell lysate
Summary of the method: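 The log2 competition ratio per cysteine is defined as mean reporter intensity in control channels over mean reporter intensity in compound channels. Lysate from HEK293T cells (2 mg/mL) received electrophile (500 µM) or vehicle for 1 h at ambient temperature, followed by iodoacetamide alkyne for 1 h. Samples were clicked to sCIP-TMT reagents, pooled, trypsin-digested overnight at 37 °C, streptavidin-enriched, acid-eluted and run on Orbitrap Eclipse LC-MS/MS with FAIMS, with quantification in FragPipe. Three replicates with duplicate channels were used, and any cysteine quantified in only one replicate was excluded.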

Amino acid sequences for entries named in this document (tags omitted). A change or cut given only in a name is not applied to a line headed by its entry.
UniProt Q00839, whole entry, looked up: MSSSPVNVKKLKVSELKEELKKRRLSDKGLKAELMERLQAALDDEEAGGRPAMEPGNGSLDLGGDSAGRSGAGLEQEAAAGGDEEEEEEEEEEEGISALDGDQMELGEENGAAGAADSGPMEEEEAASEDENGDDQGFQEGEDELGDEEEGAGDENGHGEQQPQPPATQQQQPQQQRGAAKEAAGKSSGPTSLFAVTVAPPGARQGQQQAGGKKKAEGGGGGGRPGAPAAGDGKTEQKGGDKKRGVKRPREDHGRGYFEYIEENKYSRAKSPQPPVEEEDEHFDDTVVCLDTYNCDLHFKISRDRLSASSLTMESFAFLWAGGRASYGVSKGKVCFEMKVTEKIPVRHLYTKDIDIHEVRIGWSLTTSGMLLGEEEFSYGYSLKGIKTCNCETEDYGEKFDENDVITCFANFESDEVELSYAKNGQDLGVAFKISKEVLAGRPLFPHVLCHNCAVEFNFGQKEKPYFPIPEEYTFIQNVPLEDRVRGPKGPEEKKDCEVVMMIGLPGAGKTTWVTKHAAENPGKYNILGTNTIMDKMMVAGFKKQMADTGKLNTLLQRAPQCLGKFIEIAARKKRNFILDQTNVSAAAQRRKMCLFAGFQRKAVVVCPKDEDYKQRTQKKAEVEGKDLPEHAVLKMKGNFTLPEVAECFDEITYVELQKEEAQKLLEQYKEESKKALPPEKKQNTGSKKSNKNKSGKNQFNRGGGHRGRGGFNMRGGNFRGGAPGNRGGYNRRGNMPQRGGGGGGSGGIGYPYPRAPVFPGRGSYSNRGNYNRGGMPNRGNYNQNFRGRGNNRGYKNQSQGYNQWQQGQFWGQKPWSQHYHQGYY
UniProt Q01433: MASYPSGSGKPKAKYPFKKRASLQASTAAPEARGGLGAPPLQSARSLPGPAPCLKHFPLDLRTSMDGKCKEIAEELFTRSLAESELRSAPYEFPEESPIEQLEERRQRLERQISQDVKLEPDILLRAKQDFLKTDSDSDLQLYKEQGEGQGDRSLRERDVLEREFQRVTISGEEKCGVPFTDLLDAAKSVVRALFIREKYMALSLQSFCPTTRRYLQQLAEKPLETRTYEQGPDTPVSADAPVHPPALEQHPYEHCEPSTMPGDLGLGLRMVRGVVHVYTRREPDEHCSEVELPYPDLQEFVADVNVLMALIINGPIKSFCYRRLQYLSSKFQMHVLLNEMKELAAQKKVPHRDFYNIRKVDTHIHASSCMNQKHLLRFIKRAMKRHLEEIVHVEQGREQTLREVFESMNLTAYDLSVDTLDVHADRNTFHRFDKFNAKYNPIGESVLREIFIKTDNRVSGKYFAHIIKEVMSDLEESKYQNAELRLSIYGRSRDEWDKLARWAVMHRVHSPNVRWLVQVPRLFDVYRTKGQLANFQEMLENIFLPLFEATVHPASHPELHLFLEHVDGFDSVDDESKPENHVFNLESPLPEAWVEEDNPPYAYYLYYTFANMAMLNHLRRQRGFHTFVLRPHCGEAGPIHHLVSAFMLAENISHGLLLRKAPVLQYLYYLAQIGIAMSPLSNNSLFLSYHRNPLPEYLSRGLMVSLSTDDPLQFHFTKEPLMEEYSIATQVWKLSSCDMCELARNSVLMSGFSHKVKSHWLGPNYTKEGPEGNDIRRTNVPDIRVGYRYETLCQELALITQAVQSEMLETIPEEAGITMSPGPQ
UniProt P83369: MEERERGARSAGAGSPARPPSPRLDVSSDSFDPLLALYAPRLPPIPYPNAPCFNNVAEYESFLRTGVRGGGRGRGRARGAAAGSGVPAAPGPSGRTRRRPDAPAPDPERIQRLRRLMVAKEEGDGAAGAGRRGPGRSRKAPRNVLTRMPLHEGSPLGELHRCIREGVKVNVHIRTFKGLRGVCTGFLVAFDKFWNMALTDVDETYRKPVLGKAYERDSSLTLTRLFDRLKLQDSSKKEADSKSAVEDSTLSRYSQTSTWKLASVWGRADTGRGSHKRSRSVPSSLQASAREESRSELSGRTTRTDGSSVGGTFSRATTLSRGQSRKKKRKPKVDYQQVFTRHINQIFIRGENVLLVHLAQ
UniProt Q00610: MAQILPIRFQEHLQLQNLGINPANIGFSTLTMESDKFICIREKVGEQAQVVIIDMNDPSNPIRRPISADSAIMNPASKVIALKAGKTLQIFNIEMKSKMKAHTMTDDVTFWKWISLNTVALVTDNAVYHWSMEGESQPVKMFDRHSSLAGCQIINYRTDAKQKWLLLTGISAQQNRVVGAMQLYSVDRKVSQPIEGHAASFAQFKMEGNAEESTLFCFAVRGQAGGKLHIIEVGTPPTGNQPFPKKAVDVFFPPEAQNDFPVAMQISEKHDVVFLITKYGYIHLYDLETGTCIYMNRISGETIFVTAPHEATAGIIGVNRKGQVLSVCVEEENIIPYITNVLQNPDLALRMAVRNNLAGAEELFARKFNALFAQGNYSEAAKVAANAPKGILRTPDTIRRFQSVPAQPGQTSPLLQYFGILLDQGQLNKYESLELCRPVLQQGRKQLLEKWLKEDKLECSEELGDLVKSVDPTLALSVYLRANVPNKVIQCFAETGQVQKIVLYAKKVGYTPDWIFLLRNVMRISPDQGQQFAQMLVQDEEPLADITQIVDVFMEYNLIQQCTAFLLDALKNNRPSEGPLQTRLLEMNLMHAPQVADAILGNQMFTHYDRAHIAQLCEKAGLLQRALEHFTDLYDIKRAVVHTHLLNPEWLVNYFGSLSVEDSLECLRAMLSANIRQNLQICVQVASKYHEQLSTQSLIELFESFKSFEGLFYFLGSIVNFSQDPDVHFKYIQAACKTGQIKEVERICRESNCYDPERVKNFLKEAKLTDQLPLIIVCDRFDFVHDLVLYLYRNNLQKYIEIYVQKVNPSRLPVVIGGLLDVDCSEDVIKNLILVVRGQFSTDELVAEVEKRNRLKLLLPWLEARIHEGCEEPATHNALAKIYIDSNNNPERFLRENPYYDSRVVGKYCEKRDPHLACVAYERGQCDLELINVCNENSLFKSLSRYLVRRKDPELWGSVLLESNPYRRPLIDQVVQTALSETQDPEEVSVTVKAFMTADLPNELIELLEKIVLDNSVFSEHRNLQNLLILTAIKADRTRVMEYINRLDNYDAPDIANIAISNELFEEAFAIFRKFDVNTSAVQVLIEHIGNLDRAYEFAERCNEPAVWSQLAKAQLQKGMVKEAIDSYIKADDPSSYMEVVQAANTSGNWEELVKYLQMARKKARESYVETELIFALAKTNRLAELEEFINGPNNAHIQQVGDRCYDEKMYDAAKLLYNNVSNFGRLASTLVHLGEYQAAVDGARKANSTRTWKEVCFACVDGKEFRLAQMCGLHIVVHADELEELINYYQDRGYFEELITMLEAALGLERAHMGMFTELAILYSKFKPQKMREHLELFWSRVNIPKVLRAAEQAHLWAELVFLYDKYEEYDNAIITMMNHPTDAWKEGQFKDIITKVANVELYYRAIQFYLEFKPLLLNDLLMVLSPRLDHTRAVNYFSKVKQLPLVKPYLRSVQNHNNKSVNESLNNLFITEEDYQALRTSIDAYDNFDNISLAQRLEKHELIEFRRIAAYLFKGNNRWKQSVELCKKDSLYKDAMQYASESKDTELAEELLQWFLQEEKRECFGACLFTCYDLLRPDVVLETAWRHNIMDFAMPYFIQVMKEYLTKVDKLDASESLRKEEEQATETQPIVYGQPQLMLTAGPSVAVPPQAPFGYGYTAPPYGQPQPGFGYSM
UniProt Q01831: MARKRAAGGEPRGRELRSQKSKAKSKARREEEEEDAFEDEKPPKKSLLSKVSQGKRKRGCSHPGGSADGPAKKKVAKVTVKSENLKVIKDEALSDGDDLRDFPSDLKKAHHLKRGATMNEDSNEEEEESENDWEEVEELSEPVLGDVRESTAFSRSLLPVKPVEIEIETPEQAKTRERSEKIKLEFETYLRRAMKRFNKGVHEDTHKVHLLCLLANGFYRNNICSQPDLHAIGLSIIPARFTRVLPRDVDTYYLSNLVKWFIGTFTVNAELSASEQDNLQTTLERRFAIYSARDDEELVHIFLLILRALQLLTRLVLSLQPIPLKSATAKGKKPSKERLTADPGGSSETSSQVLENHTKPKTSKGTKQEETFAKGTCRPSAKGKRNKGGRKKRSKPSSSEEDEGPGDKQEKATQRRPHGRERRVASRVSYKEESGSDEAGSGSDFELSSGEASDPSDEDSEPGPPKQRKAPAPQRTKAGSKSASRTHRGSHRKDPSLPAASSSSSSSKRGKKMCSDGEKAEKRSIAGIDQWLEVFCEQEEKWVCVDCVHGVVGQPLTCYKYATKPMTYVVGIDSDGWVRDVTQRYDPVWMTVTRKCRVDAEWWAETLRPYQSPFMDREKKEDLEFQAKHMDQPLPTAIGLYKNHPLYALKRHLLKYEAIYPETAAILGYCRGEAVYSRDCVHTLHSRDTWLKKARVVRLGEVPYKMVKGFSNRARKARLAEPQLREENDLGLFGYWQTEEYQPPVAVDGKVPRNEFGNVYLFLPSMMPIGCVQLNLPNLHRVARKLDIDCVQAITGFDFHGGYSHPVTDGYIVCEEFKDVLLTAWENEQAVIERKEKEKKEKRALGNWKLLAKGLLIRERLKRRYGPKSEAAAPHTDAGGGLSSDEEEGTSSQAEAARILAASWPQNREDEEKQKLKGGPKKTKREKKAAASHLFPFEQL
UniProt Q01813: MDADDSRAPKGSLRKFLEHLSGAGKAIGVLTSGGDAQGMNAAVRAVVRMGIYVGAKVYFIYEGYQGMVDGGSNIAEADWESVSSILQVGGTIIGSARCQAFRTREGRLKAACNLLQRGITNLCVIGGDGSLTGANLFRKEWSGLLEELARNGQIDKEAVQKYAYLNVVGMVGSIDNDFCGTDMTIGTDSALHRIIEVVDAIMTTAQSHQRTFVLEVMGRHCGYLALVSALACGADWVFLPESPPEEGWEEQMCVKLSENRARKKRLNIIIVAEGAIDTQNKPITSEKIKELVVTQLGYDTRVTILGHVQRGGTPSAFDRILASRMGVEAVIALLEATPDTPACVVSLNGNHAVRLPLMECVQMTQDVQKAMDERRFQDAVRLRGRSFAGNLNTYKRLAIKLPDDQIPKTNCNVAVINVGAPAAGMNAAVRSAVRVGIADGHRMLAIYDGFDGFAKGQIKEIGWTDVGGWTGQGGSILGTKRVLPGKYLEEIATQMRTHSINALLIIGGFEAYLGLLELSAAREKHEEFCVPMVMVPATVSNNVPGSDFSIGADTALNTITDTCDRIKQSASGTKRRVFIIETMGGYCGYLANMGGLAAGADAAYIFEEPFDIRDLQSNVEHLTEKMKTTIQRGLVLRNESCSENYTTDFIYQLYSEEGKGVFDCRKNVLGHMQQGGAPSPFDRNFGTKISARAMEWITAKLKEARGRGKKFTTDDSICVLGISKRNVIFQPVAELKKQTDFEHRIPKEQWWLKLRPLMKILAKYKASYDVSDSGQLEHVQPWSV
UniProt P84090, whole entry, looked up: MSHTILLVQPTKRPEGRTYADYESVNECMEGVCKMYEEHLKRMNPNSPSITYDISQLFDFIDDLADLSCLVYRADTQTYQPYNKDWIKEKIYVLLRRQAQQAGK
UniProt P78362, whole entry, looked up: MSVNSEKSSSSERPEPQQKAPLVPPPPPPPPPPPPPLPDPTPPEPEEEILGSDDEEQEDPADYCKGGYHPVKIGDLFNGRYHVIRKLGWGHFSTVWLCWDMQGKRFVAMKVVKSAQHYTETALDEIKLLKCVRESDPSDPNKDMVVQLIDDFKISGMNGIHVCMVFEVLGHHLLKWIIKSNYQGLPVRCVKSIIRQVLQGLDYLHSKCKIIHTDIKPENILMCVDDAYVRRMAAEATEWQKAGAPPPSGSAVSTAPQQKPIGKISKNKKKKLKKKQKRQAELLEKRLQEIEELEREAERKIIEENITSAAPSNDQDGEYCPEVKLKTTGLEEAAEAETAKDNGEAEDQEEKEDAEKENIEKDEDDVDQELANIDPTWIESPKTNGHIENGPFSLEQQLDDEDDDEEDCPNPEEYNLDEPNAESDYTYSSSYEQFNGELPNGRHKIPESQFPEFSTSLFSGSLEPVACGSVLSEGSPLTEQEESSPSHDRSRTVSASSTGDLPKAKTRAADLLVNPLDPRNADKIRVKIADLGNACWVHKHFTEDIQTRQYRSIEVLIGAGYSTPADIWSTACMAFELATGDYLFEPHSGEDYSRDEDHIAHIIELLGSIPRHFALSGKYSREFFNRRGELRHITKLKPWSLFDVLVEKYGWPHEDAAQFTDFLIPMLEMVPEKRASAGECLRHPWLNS

log2 ratio of iodoacetamide-alkyne labeling, inactive:
RPL10A C164 (UniProt P62906) -0.0529, HNRNPU C391 (UniProt Q00839) -0.255, AMPD2 C107 (UniProt Q01433) 0.241, LSM11 C52 (UniProt P83369) 0.259, UniProt P62273_C39 0.139, CLTC C736 (UniProt Q00610) 0.109, UniProt P62280_C116 0.232, CLTC C1205 (UniProt Q00610) -0.632, XPC C60 (UniProt Q01831) 0.242, PFKP C411 (UniProt Q01813) -0.0345, UniProt P62263_C85 0.136, UniProt P62263_C31 -0.189, UniProt P84090_C28 0.117, SRPK2 C320 (UniProt P78362) 0.214
